Our source for the binding values is article PMC4666391 (Nucleic Acids Research, 2015).

The chains behind the UniProt entries cited, without tags or fusion partners. Where a name states a change or a piece, a line headed by the entry shows the natural chain unless it says otherwise.
UniProt P29469: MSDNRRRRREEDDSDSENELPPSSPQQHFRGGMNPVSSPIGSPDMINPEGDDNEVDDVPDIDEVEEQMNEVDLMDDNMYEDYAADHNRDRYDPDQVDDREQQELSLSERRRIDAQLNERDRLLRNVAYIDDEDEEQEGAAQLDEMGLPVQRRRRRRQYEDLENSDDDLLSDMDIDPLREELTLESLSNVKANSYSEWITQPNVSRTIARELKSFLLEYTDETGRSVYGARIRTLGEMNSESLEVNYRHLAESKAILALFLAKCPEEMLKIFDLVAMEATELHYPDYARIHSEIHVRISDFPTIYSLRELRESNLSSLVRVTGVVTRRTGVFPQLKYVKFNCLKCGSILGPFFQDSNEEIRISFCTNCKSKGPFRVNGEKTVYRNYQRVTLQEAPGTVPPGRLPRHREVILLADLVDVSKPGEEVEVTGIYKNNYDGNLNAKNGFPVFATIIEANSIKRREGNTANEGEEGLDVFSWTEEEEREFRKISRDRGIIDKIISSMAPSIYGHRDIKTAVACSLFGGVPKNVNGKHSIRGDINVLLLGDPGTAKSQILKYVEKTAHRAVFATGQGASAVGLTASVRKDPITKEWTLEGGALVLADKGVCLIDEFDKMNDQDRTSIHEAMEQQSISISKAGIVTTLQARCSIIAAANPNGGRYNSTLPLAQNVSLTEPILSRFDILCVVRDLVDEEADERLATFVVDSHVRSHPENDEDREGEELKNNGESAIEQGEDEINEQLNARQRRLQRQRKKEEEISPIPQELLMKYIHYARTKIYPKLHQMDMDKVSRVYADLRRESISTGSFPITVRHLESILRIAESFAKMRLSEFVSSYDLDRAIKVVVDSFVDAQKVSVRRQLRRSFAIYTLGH
UniProt P24279: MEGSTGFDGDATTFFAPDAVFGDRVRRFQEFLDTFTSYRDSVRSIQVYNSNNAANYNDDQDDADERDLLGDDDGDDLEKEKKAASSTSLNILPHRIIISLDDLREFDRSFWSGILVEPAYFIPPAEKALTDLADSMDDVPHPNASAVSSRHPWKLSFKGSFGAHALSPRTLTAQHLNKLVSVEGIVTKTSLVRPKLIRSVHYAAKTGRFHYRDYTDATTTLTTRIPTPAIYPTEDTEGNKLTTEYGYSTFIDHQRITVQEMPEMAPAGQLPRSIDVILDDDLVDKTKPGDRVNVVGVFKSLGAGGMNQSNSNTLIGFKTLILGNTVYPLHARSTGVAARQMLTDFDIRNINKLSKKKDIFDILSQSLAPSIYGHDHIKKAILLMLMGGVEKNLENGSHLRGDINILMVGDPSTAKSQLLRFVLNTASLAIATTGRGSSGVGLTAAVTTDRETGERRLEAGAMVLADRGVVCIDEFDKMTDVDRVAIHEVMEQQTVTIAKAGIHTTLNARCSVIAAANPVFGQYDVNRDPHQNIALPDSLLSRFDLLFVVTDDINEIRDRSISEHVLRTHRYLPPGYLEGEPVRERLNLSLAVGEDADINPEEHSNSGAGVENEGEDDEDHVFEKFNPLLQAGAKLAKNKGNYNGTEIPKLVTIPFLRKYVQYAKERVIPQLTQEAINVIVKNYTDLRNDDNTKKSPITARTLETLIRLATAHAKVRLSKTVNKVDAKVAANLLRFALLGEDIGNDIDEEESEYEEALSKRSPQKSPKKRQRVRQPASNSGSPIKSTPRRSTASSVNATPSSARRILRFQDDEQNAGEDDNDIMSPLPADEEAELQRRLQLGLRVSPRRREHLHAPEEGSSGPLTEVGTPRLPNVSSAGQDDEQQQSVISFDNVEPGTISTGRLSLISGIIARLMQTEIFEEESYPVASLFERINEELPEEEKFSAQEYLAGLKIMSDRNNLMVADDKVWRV
UniProt P30665: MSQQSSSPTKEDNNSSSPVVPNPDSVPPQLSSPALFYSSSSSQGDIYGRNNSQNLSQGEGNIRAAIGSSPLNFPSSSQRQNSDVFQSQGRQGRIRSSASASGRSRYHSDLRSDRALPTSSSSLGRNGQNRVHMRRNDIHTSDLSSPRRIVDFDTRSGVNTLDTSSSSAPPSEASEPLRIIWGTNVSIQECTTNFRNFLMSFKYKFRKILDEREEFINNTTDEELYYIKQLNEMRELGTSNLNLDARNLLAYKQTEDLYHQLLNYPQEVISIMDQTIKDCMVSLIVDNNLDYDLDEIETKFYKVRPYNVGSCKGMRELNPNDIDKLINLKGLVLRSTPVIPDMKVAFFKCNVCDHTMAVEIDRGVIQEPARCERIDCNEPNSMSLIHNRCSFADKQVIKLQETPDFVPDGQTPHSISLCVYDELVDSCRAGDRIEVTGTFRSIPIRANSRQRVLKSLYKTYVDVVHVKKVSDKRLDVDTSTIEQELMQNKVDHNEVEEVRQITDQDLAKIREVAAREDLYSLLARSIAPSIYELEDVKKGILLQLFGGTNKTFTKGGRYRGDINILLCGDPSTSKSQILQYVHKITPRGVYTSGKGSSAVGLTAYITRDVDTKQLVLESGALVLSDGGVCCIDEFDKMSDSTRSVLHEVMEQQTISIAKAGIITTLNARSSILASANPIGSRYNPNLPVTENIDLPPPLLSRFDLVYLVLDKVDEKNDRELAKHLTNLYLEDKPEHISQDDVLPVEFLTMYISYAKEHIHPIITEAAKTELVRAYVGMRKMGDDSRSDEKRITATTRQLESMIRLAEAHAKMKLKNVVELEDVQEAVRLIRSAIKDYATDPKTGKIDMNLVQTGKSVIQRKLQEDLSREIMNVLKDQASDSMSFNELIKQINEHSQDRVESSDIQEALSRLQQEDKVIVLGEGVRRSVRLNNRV
UniProt P29496: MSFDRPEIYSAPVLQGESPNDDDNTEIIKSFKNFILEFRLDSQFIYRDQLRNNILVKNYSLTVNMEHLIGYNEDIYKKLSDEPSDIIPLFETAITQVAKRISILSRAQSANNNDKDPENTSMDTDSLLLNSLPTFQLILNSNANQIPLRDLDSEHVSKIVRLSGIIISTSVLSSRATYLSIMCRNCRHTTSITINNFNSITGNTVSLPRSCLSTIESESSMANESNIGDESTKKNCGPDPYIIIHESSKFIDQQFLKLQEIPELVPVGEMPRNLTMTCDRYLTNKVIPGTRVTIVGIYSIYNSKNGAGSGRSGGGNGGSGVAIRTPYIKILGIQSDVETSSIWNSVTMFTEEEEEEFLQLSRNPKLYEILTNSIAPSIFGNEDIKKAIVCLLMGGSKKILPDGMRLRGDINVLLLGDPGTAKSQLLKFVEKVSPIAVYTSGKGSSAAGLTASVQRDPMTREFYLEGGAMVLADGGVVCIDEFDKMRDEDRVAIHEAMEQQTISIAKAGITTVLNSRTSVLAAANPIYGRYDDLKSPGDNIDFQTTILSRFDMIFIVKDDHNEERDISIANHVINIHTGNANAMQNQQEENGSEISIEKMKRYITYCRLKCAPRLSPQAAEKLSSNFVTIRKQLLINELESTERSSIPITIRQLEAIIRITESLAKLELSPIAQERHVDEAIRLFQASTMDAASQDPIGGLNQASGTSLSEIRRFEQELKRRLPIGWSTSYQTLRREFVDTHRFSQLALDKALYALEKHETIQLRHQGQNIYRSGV
UniProt P53091: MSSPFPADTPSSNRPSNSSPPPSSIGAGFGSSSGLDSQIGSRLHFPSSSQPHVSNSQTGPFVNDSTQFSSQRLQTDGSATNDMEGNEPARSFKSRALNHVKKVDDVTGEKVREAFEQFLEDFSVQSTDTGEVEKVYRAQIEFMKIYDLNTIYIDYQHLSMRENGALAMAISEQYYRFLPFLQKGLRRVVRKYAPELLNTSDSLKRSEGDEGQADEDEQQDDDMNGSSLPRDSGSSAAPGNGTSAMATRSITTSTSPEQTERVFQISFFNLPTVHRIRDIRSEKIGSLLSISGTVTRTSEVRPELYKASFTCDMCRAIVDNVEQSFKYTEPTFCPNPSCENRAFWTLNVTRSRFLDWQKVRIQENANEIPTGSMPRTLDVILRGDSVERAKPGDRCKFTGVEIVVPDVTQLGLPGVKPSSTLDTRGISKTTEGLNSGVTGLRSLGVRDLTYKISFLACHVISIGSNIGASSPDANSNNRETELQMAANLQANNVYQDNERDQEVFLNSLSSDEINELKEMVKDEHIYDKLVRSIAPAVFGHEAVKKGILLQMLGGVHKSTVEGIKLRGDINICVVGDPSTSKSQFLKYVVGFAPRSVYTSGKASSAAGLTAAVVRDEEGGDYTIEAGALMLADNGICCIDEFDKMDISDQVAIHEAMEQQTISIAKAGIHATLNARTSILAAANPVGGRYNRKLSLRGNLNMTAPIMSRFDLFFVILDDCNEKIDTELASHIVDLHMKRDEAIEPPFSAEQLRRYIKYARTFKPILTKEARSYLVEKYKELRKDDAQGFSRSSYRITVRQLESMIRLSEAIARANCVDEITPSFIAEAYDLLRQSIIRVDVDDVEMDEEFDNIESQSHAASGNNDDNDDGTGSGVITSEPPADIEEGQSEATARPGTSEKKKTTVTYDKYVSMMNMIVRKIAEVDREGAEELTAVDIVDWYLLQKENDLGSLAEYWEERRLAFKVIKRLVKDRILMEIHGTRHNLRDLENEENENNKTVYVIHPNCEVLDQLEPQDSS
UniProt P38132: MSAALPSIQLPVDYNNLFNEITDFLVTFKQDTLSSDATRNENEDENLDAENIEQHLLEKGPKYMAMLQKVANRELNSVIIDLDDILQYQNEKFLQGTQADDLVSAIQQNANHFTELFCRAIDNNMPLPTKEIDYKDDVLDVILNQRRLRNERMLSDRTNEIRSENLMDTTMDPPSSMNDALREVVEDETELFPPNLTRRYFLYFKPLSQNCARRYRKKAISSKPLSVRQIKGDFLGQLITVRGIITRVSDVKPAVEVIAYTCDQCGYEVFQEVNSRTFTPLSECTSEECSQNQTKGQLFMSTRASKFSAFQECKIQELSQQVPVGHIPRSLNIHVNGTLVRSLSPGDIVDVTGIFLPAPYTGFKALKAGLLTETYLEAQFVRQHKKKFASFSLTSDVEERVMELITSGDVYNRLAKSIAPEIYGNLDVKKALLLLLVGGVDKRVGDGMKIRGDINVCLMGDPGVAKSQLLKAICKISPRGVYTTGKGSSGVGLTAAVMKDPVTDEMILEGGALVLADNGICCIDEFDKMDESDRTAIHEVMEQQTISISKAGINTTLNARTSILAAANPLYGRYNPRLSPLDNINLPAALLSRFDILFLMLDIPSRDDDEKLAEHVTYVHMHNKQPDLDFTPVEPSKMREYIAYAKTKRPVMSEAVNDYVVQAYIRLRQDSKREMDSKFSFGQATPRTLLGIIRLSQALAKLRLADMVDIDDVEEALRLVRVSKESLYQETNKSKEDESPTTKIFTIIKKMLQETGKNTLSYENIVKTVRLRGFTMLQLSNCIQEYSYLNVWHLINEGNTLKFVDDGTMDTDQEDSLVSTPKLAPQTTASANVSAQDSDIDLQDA

Where two headings read alike, the source gives them in different places. These are yes or no findings as the source states them, for the method shown. For some assays here: Binding seen in cells or lysates may run through a third protein. Some entries that bind do so weakly or less than the wild type. For some assays here: Where a sequence is shown, tags or fusion partners need not be part of it.

Assay [1] concerns the target T1, GST-Sld2 (S. cerevisiae) (UniProt P34252).
T1 sequence: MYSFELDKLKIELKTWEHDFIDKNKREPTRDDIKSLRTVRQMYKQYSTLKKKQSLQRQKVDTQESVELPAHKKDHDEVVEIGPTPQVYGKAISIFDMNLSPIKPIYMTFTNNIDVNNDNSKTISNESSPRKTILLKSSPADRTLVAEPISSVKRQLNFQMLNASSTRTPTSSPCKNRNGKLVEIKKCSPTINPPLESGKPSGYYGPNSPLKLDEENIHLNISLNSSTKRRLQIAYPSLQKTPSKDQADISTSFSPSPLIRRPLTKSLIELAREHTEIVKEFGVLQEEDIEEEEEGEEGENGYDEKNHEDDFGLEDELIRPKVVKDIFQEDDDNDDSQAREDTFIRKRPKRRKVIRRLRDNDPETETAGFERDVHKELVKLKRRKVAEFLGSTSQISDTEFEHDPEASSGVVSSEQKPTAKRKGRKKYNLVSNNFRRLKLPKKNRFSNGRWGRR
The assay can be described thus: pull-down; GST-Sld2 (400 ng) or equimolar GST immobilized on magnetic beads, incubated with S^35 labeled in vitro transcribed and translated protein; SDS-PAGE, autoradiography; 5% input; only the target purified.

Assay [2] deals with T1, GST-Sld2 (S. cerevisiae). Described as above. The source holds these as a separate data set.
Assay [3] deals with pre-RC (MCM2–7 double-hexamer loaded on pUC19-ARS1 DNA) (S. cerevisiae) (UniProt P29469+P24279+P30665+P29496+P53091+P38132). As to the kind of experiment: SEC; gel-filtration based pre-RC assay: one factor (40 nM) added alone to pre-RC assembled in solution on pUC19-ARS1, no DDK; 1–30 min at 27°C with competitor DNA and BSA, then 200 mM KAc, Sephacryl S400 HR spin column; DNA-bound proteins in the eluate by SDS-PAGE; both purified. Background: Size exclusion chromatography separates by hydrodynamic size, large species first.

For assay [4], the target named is T2, Sld3 (purified) (S. cerevisiae) (UniProt P53135).
T2 sequence: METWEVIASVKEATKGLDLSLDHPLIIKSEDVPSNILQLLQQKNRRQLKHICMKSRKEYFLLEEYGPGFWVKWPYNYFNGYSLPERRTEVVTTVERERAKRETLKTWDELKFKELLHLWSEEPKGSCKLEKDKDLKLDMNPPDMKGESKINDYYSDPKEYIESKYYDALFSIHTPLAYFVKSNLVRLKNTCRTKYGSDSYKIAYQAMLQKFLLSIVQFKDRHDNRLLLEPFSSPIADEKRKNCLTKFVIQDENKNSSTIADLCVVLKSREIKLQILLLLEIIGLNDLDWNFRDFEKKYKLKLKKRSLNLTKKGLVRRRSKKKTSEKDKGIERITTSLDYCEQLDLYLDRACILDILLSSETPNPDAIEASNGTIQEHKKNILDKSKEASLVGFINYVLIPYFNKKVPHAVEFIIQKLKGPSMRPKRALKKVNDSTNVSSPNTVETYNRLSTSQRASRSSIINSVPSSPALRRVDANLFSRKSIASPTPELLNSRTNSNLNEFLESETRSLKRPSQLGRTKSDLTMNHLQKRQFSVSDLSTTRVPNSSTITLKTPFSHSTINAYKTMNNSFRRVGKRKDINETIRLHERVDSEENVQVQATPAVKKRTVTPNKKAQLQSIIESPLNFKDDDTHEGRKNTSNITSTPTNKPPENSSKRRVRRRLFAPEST
The assay can be described thus: pull-down; Sld3 (150 ng) immobilized on anti-Sld3 magnetic beads or control beads, incubated with S^35 labeled in vitro transcribed and translated Sld2; autoradiography; 5% input; only the target purified.

For “Mcm2 (in vitro transcribed and translated) (from UniProt P29469 1-868)”, in the assay with GST-Sld2 (S. cerevisiae) [1], the binding result was “binds”.

B1: Sld3 (in vitro transcribed and translated) (protein, UniProt P53135 1-668)
chain: METWEVIASVKEATKGLDLSLDHPLIIKSEDVPSNILQLLQQKNRRQLKHICMKSRKEYFLLEEYGPGFWVKWPYNYFNGYSLPERRTEVVTTVERERAKRETLKTWDELKFKELLHLWSEEPKGSCKLEKDKDLKLDMNPPDMKGESKINDYYSDPKEYIESKYYDALFSIHTPLAYFVKSNLVRLKNTCRTKYGSDSYKIAYQAMLQKFLLSIVQFKDRHDNRLLLEPFSSPIADEKRKNCLTKFVIQDENKNSSTIADLCVVLKSREIKLQILLLLEIIGLNDLDWNFRDFEKKYKLKLKKRSLNLTKKGLVRRRSKKKTSEKDKGIERITTSLDYCEQLDLYLDRACILDILLSSETPNPDAIEASNGTIQEHKKNILDKSKEASLVGFINYVLIPYFNKKVPHAVEFIIQKLKGPSMRPKRALKKVNDSTNVSSPNTVETYNRLSTSQRASRSSIINSVPSSPALRRVDANLFSRKSIASPTPELLNSRTNSNLNEFLESETRSLKRPSQLGRTKSDLTMNHLQKRQFSVSDLSTTRVPNSSTITLKTPFSHSTINAYKTMNNSFRRVGKRKDINETIRLHERVDSEENVQVQATPAVKKRTVTPNKKAQLQSIIESPLNFKDDDTHEGRKNTSNITSTPTNKPPENSSKRRVRRRLFAPEST
modifications: S^35 labeled
With B1, in the assay with GST-Sld2 (S. cerevisiae) [2], the binding entry was “binds”.

B2: Sld2 (purified) (natural protein, S. cerevisiae, UniProt P34252 1-453, looked up)
chain: MYSFELDKLKIELKTWEHDFIDKNKREPTRDDIKSLRTVRQMYKQYSTLKKKQSLQRQKVDTQESVELPAHKKDHDEVVEIGPTPQVYGKAISIFDMNLSPIKPIYMTFTNNIDVNNDNSKTISNESSPRKTILLKSSPADRTLVAEPISSVKRQLNFQMLNASSTRTPTSSPCKNRNGKLVEIKKCSPTINPPLESGKPSGYYGPNSPLKLDEENIHLNISLNSSTKRRLQIAYPSLQKTPSKDQADISTSFSPSPLIRRPLTKSLIELAREHTEIVKEFGVLQEEDIEEEEEGEEGENGYDEKNHEDDFGLEDELIRPKVVKDIFQEDDDNDDSQAREDTFIRKRPKRRKVIRRLRDNDPETETAGFERDVHKELVKLKRRKVAEFLGSTSQISDTEFEHDPEASSGVVSSEQKPTAKRKGRKKYNLVSNNFRRLKLPKKNRFSNGRWGRR
notes: Sld2, S. cerevisiae; it may or may not be the same preparation as GST-Sld2; also called purified Sld2; source: purified
Regarding B2, the binding entry in assay [3] is given as “binds”.

B3: Sld2 (in vitro transcribed and translated) (protein, UniProt P34252 1-453)
chain: MYSFELDKLKIELKTWEHDFIDKNKREPTRDDIKSLRTVRQMYKQYSTLKKKQSLQRQKVDTQESVELPAHKKDHDEVVEIGPTPQVYGKAISIFDMNLSPIKPIYMTFTNNIDVNNDNSKTISNESSPRKTILLKSSPADRTLVAEPISSVKRQLNFQMLNASSTRTPTSSPCKNRNGKLVEIKKCSPTINPPLESGKPSGYYGPNSPLKLDEENIHLNISLNSSTKRRLQIAYPSLQKTPSKDQADISTSFSPSPLIRRPLTKSLIELAREHTEIVKEFGVLQEEDIEEEEEGEEGENGYDEKNHEDDFGLEDELIRPKVVKDIFQEDDDNDDSQAREDTFIRKRPKRRKVIRRLRDNDPETETAGFERDVHKELVKLKRRKVAEFLGSTSQISDTEFEHDPEASSGVVSSEQKPTAKRKGRKKYNLVSNNFRRLKLPKKNRFSNGRWGRR
modifications: S^35 labeled
As for B3, in assay [4], the binding entry is listed as “binds”.

B4: Sld7 (in vitro transcribed and translated) (protein, UniProt Q08457 1-257)
chain: MSRKLCTLNFTLSGKQGSLVIRDIQLWSNRPTASKSTSELRGQFIQYVDLAKLPLWVRSTNMNTYRCYSTSATAQAYFKSKLRNANRGIVIELFDKVDQRSQEPAYLIIFRENTELNCFQVDLTMKHEFDGQVTKLKQDIGKTRASVSKEGSIDIIIQQSQQRKIGTKTEVYRNVHINDKRLQFNETLSKLILGGLRLRGISNSITDYQKLYKITFDAAEFTHRDELKRISMGSGEEVSFESLQETVETLLKLFTKS
modifications: S^35 labeled
Take B4: the binding result with GST-Sld2 (S. cerevisiae) [2] was “binds”.
